This is an account of results in PubChem BioAssay AID248 (DTP/NCI, 2004).

The list shows only some results of the screen, not a fair sample: it is rich in T/C values a quarter to a half above the control, in often repeated tests (any T/C) and in doses without a T/C. Further doses and runs are listed elsewhere. T/C: endpoint of the treated group in % of that of the vehicle group. Some doses have a count of surviving animals in place of a T/C: the source holds a T/C of zero for them, seemingly a mark for toxic or unscored doses. Some doses without a T/C left all or most animals alive at the check, yet need not have been tolerated: the source hardly ever lists a survival T/C far under the control, and the zero likely stands for such cases as well. Survivors were counted at the toxicity check, usually on the fifth day, unless a day is given; later deaths do not show. Schedule codes are those of the source, read here as Q, the interval in days (D) or hours (H), X, the number of doses. Some doses were run more than once; the results are listed from low to high. Some schedules carry Z or #; the key to these is not given. Where survival is the endpoint, this PubChem deposit counts one and a half times the control or more as active, and values a quarter to a half above the control carry no call in these data; other NCI protocols may use other cut-offs. Counts like (3×) stand for listed records that agree.

This assay concerns L1210 leukemia ip in BDF1 mice, survival T/C. In words: NCI In Vivo Anticancer Drug Screen. Data for tumor model L1210 Leukemia (intraperitoneal) in B6D2F1 (BDF1) mice. Particulars: T/C endpoint: mean survival time, higher T/C = longer survival.
The mark [1] stands for this setting: dose: 25.0 mg/kg/injection, schedule: Q04DX003 (ip), vehicle: Klucel (hydroxypropylcellulose) (HPC).
Setting [2] is: dose: 100.0 mg/kg/injection, schedule: Q04DX003 (ip), vehicle: Klucel (hydroxypropylcellulose) (HPC).
[3] abbreviates: dose: 200.0 mg/kg/injection, schedule: Q04DX003 (ip), vehicle: Klucel (hydroxypropylcellulose) (HPC).
Where [4] appears, read: dose: 400.0 mg/kg/injection, schedule: Q04DX003 (ip), vehicle: Klucel (hydroxypropylcellulose) (HPC).
[5] abbreviates: dose: 200.0 mg/kg/injection, schedule: Q01DX001 (ip), vehicle: saline.
Setting [6] is: dose: 400.0 mg/kg/injection, schedule: Q01DX001 (ip), vehicle: saline.
The mark [7] stands for this setting: dose: 200.0 mg/kg/injection, schedule: Q04DX003 (ip), vehicle: saline with Tween-80.
Where [8] appears, read: dose: 400.0 mg/kg/injection, schedule: Q04DX003 (ip), vehicle: saline with Tween-80.
Setting [9] is: dose: 300.0 mg/kg/injection, schedule: Q01DX001 (ip), vehicle: saline.

As to `CNC(=Nc1ccc(NC(=O)c2ccc(C(=O)Nc3ccc(N=C(NC)c4ccccc4)cc3)cc2)cc1)c1ccccc1`, the survivor count was 0 of 6 (dose: 30.0 mg/kg/injection, schedule: Q01DX Z (ip), vehicle: other); 0 of 6 (dose: 60.0 mg/kg/injection, schedule: Q01DX Z (ip), vehicle: other); 0 of 6 (dose: 120.0 mg/kg/injection, schedule: Q01DX Z (ip), vehicle: other).

Take `OCC[CH2][Pb]([c]1ccccc1)([c]1ccccc1)[c]1ccccc1`: the survivor count is 6 of 6 (dose: 12.5 mg/kg/injection, schedule: Q04DX003 (ip), vehicle: Klucel (hydroxypropylcellulose) (HPC)); 3 of 6 under setting [1]; 5 of 6 under setting [2]; 0 of 6 under setting [3]; 0 of 6 under setting [4].

Consider `CC1=NNC(=O)C1CCO` (stereo not drawn), for which the survivor count (dose: 100.0 mg/kg/injection, schedule: Q01DX009 (ip), vehicle: Klucel (hydroxypropylcellulose) (HPC)) is reported as 5 of 6.

`C1=CC2(OCCO2)C2CC=CC3(OCCO3)C2C1` (stereo not drawn): the survivor count is 3 of 6 (dose: 200.0 mg/kg/injection, schedule: Q01DX009 (ip), vehicle: saline) and 2 of 6 (dose: 400.0 mg/kg/injection, schedule: Q01DX009 (ip), vehicle: saline).

Turning to `CCCCCC(CN(C)C)C(=O)/C=C/c1ccccc1` (stereo not drawn), the survivor count (dose: 200.0 mg/kg/injection, schedule: Q01DX009 (sc), vehicle: other) is 0 of 6 and the survivor count (dose: 400.0 mg/kg/injection, schedule: Q04DX003 (sc), vehicle: other) was 1 of 6.

`C[n+]1ccc(/C=C/c2ccc(Cl)c(Cl)c2)cc1`: the survivor count under setting [1] is listed as 1 of 6; the survivor count (dose: 50.0 mg/kg/injection, schedule: Q04DX003 (ip), vehicle: Klucel (hydroxypropylcellulose) (HPC)) is 0 of 6; the survivor count under setting [2] is reported as 0 of 6; the survivor count under setting [3] was 0 of 6; the survivor count under setting [4] is 0 of 6.

In the case of `COc1cc(OC(C)=O)c2ncccc2c1OC(C)=O`, the survivor count is 2 of 4 under setting [5] and 0 of 4 under setting [6].

For `C[C@@H]1C[C@@]2(C)[C@@H](CC[C@@H]3[C@@H]2CC[C@]2(C)OC(=O)CC[C@@H]32)CC1=O`, the survivor count (dose: 400.0 mg/kg/injection, schedule: Q04DX003 (ip), vehicle: other) is reported as 6 of 6.

With `CC1(N(O)C(=O)NC2CCCCC2)CCCCC1`, the survivor count (dose: 400.0 mg/kg/injection, schedule: Q01DX001 (ip), vehicle: saline with Tween-80) is on record as 1 of 6.

As for `NC(=O)c1ccc(OC(F)(F)C(F)Cl)cc1OC(F)(F)C(F)Cl` (stereo not drawn), the survivor count under setting [7] is 0 of 6.

Take `CCOC(=O)N1N=C([P+](c2ccccc2)(c2ccccc2)c2ccccc2)CC1(c1ccccc1)c1ccccc1`: the survivor count is recorded as 2 of 6 (dose: 100.0 mg/kg/injection, schedule: Q01DX001 (ip), vehicle: saline); 0 of 6 under setting [5]; 0 of 6 under setting [6].

For the molecule `O=C(CCCCC(=O)Nc1cc(C(=O)Nc2ccc(C3=NCCN3)cc2)ccc1C(=O)Nc1ccc(C2=NCCN2)cc1)Nc1cc(C(=O)Nc2ccc(C3=NCCN3)cc2)ccc1C(=O)Nc1ccc(C2=NCCN2)cc1`, where the note is “dose: 60.0 mg/kg/injection, schedule: Q01DX Z (ip), vehicle: methylcellulose (MC)”, the survivor count is recorded as 0 of 6.

Take `CC[N+](C)(C)CCCOC(=O)C1C2CC3CC(C2)CC1C3` (stereo not drawn): the survivor count reads like this: (dose: 100.0 mg/kg/injection, schedule: Q04DX002 (ip), vehicle: saline) 0 of 3 and 2 of 3; (dose: 200.0 mg/kg/injection, schedule: Q04DX002 (ip), vehicle: saline) 0 of 3; (dose: 400.0 mg/kg/injection, schedule: Q04DX002 (ip), vehicle: saline) 0 of 3.

`Cc1ccccc1N=C(N)Nc1ccccc1C`: the survivor count by setting is: (dose: 40.0 mg/kg/injection, schedule: Q01DX001 (ip), vehicle: carboxymethylcellulose (CMC)) 1 of 6; (dose: 50.0 mg/kg/injection, schedule: Q01DX001 (ip), vehicle: carboxymethylcellulose (CMC)) 0 of 4; (dose: 50.0 mg/kg/injection, schedule: Q01DX001 (ip), vehicle: other) 2 of 6; (dose: 80.0 mg/kg/injection, schedule: Q01DX001 (ip), vehicle: carboxymethylcellulose (CMC)) 0 of 6; (dose: 100.0 mg/kg/injection, schedule: Q01DX001 (ip), vehicle: carboxymethylcellulose (CMC)) 0 of 4; (dose: 200.0 mg/kg/injection, schedule: Q01DX001 (ip), vehicle: carboxymethylcellulose (CMC)) 0 of 4. Moreover, the survivor count (dose: 400.0 mg/kg/injection, schedule: Q01DX001 (ip), vehicle: carboxymethylcellulose (CMC)) is given as 0 of 4.

Turning to `Nc1cc(Nc2ccc(CCO)cc2)nc(N)n1`, for the setting “dose: 100.0 mg/kg/injection, schedule: Q01DX Z (ip), vehicle: methylcellulose (MC)”, the survivor count is recorded as 3 of 6.

Regarding `CCCSCCSCCC`, the survivor count under setting [7] is given as 6 of 6 and the survivor count under setting [8] is reported as 6 of 6.

For `O=C1C(N2CCCCC2)=C(N2CC2)C(=O)C(N2CCCCC2)=C1N1CC1`, the T/C reads like this: (dose: 25.0 mg/kg/injection, schedule: Q04DX003 (ip), vehicle: saline) 102, 115, 119 % of control (2×); (dose: 35.0 mg/kg/injection, schedule: Q04DX003 (ip), vehicle: saline) 126 % of control. Also, the survivor count by setting is: (dose: 55.0 mg/kg/injection, schedule: Q04DX003 (ip), vehicle: saline) 6 of 6; (dose: 80.0 mg/kg/injection, schedule: Q04DX003 (ip), vehicle: saline) 1 of 6.

Take `[Cl][Rh][Cl].c1cn[nH]c1.c1cn[nH]c1.c1cn[nH]c1.c1cn[nH]c1`: the survivor count reads like this: (dose: 50.0 mg/kg/injection, schedule: Q01DX009 (ip), vehicle: Klucel (hydroxypropylcellulose) (HPC)) 5 of 6; under setting [2], 2 of 6; under setting [3], 0 of 6; under setting [4], 0 of 6.

With `O=CCC1C=CCC1` (stereo not drawn), the survivor count (dose: 300.0 mg/kg/injection, schedule: Q01DX001 (ip), vehicle: carboxymethylcellulose (CMC)) was 0 of 6.

`COc1ccc(Nc2cccc(Cl)c2)c(C(=O)O)c1`: the survivor count under setting [9] is reported as 3 of 6.

On to `C1CCC2[N-]CC3CCCCC3[N-]CC3CCCCC3[N-]CC3CCCCC3[N-]CC2C1.[Cu]` (stereo not drawn), for which the survivor count (dose: 200.0 mg/kg/injection, schedule: Q01DX001 (ip), vehicle: Klucel (hydroxypropylcellulose) (HPC)) was 0 of 3.

Consider `CCCCNC(=O)CCl`, for which the survivor count under setting [6] was 0 of 4.

For the molecule `CCCCC(=O)NC1=C(Cl)C(=O)c2ccccc2C1=O`, the survivor count under setting [9] was 2 of 6.

With `O=c1ccs[nH]1`, the survivor count was 1 of 6 and 4 of 6 (dose: 50.0 mg/kg/injection, schedule: Q04DX003 (ip), vehicle: saline with Tween-80); 0 of 6 (dose: 100.0 mg/kg/injection, schedule: Q04DX003 (ip), vehicle: saline with Tween-80); 0 of 6 under setting [7]; 0 of 6 under setting [8].

As to `COCC/C(COC)=N\N=C(/CCOC)COC`, the survivor count (dose: 400.0 mg/kg/injection, schedule: Q01DX009 (ip), vehicle: Klucel (hydroxypropylcellulose) (HPC)) is on record as 2 of 6.

Take `CC(/C(=N\N=C(N)N)c1ccccc1)N(C)C` (stereo not drawn): the survivor count (dose: 200.0 mg/kg/injection, schedule: Q01DX Z (oral), vehicle: methylcellulose (MC)) is recorded as 2 of 6; the survivor count (dose: 250.0 mg/kg/injection, schedule: Q01DX Z (ip), vehicle: methylcellulose (MC)) is recorded as 0 of 6; the survivor count (dose: 375.0 mg/kg/injection, schedule: Q01DX Z (ip), vehicle: methylcellulose (MC)) is reported as 0 of 6; the survivor count (dose: 400.0 mg/kg/injection, schedule: Q01DX Z (oral), vehicle: methylcellulose (MC)) is given as 2 of 6; the survivor count (dose: 500.0 mg/kg/injection, schedule: Q01DX Z (ip), vehicle: methylcellulose (MC)) is listed as 0 of 6.
